# Most values lie at the floor of the assay. Slopes are relative: functional sequences can read slightly below zero.
# Tested on: Saccharomyces cerevisiae PS128 hsf1 delta, HSF1(1-493) fusion
# Experiment: growth estimate (transactivation domain function in HSF1 fusion, heat-shock survival) (a.u. (slope of normalised read count over time)); higher = stronger growth at 37°C, i.e. more transactivation activity
# Conditions: library: random library
# Protocol: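 Random 60-nt DNA library encoding peptides of up to 20 aa, fused to the C-terminus of yeast HSF1 residues 1-493 (C-terminal TAD deleted) and expressed from the native HSF1 promoter on a CEN plasmid in hsf1-deleted S. cerevisiae PS128. Cells were selected at 37°C on -trp 5-FOA plates for 0, 2, 4, 6 and 8 days and amplicons were sequenced. Growth estimate is the slope of a robust linear fit of total-sum-normalised read counts (normalised to the first time point) over time, using at least 2 replicates. Sequences are classed functional (TAD activity) above a threshold of -0.13, set from stop-codon control sequences.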
row,Substance,growth estimate
1,LGLEMTRLRLRYLKSPCPLH,< -0.25
2,DTGMLCSSPKYRTAHCSGP,< -0.25
3,EPERGLTYQVVVSSSDYFRR,< -0.25
4,FELVRLVCLAPQGPLTLTNA,< -0.25
5,YDGGGTCHWSEHSAPDSSGL,< -0.25
6,EIG,< -0.25
7,WQPSAVSSWRDRTWLEKGYR,< -0.25
8,DRVQN,< -0.25
9,EQPGGPNG,< -0.25
10,IRWYASVGRTPAKSSEPRS,< -0.25
11,TVRHTHSKSLLGLLWNVGLF,< -0.25
12,VRCFHCRVR,< -0.25
13,KLVNRRLDCRESYKH,< -0.25
14,GQSRD,< -0.25
15,RLGPKRPMGPTDG,< -0.25
16,LSSVHN,< -0.25
17,VVVVVEN,< -0.25
18,STKV,< -0.25
19,LSADRDMKRGVNCSNEIIGG,< -0.25
20,SHMHRSKPLRCCFYCNPEPR,< -0.25
21,QLH,< -0.25
22,GTGAIKLTYW,< -0.25
23,KSVK,< -0.25
24,TGGQGRGVRHCRNQASRCRC,< -0.25
25,GCTFKGCGSSRR,0.183

row,Substance,growth estimate
1,PMLSLSGVYCTS,< -0.25
2,IRLTRV,< -0.25
3,SSDPP,< -0.25
4,LRNVETRARHNTHGTGSSRT,< -0.25
5,VLQSRRCTILATVYIDLAES,< -0.25
6,PPLGKYCLAAHLCWSRRQST,< -0.25
7,KHGGLRLICISMGSFSQIDA,0.146
8,AVERSESKFG,< -0.25
9,MSPVTLARISLESGREILKG,< -0.25
10,PGHF,< -0.25
11,RRHGTHCFRESFADSPRFAK,< -0.25
12,FRASYRL,< -0.25
13,PYSGISFSKVTP,< -0.25
14,QLLDST,< -0.25
15,YADVGILLGRDGQTECMI,< -0.25
16,IQGDVTGI,< -0.25
17,QVMRSKRY,< -0.25
18,EFTQAAR,< -0.25
19,HGFKARLSVGGGPAEWPIGS,< -0.25
20,CAGDASAYGNSARN,< -0.25
21,ARVKLTKYS,< -0.25
22,ESIKRSIDFS,< -0.25
23,QLGRDVALVQLHLSGKGPVI,< -0.25
24,RRSPKCARLD,< -0.25
25,WWMCYPVGVTKQSKNDALYP,< -0.25

row,Substance,growth estimate
1,YHMRRRIAL,< -0.25
2,PTITA,< -0.25
3,LKARAWSTRLDIRVWRLWTA,< -0.25
4,TSTINPSI,< -0.25
5,NMGSTDCLLNKVSTLKRCPA,< -0.25
6,HRSPSPFARLSFQYPSRAGS,< -0.25
7,PENAITVTVVVFCLLTGGPP,< -0.25
8,VSTRALSTLIALTSYPHEWI,< -0.25
9,LMSKR,< -0.25
10,SQALRIG,< -0.25
11,LDQAYALTQLLYTDIRELSS,1.97
12,RGTAQKG,< -0.25
13,MHSAPLVGSKRIYPHLRIVR,< -0.25
14,IDSGHYLT,< -0.25
15,TVEWLRQDVRR,< -0.25
16,CLCRIE,< -0.25
17,AVVGRRCISPCTRPLDAAAP,< -0.25
18,CCSIAILGAYDCIEDVELRR,< -0.25
19,IGVRVAARAGRQHQVSVHTA,< -0.25
20,ALIE,< -0.25
21,LVGC,< -0.25
22,LGLKENTVSTLVSQD,< -0.25
23,SSN,< -0.25
24,RRWTPKHEGDKASNGCL,< -0.25
25,WLYG,< -0.25

row,Substance,growth estimate
1,DRSKRVELTVTSVPPPQWNM,< -0.25
2,GQWSPPGVTEVASAAGQYMA,< -0.25
3,AAEQESSWKG,< -0.25
4,WVSSVKDDPFLLEKTYNLGE,< -0.25
5,LRGRFSEWRL,< -0.25
6,NRWSWNVRGPPCINDNVCQA,< -0.25
7,SQRCRDPGPQARESYRQAEA,< -0.25
8,PQALP,< -0.25
9,VSVGRATKSHICNLRVH,< -0.25
10,WTNAPG,< -0.25
11,VSRA,< -0.25
12,IVGFGRPMDRMVCSRMNGGN,< -0.25
13,YLPRLIIP,< -0.25
14,KHNWW,< -0.25
15,LSGPRFQLLGCVYAPFDHEV,< -0.25
16,TQKLYQSLRESPGRACYERH,< -0.25
17,LGRQYKSRGNAWRSHLGKQK,< -0.25
18,KNCVFSNCDFGEYH,< -0.25
19,TEAEGRPKLMRPTCPIRASR,< -0.25
20,GGPAYWAWYISVSRSMLDSS,< -0.25
21,ILCATARRTDDTSDGGYSIE,< -0.25
22,PQSSTVFLGEPRGDRHGRQN,< -0.25
23,SVIRGEPVSPSVAGIPKPLT,< -0.25
24,NEISLGLSGRTGPLKSS,< -0.25
25,GVALYVIS,< -0.25

# 37 entries from above, set out differently:
row | Substance | growth estimate
1 | LGLEMTRLRLRYLKSPCPLH | < -0.25
3 | EPERGLTYQVVVSSSDYFRR | < -0.25
5 | YDGGGTCHWSEHSAPDSSGL | < -0.25
10 | IRWYASVGRTPAKSSEPRS | < -0.25
14 | GQSRD | < -0.25
17 | VVVVVEN | < -0.25
18 | STKV | < -0.25
19 | LSADRDMKRGVNCSNEIIGG | < -0.25
24 | TGGQGRGVRHCRNQASRCRC | < -0.25
1 | PMLSLSGVYCTS | < -0.25
2 | IRLTRV | < -0.25
6 | PPLGKYCLAAHLCWSRRQST | < -0.25
7 | KHGGLRLICISMGSFSQIDA | 0.146
8 | AVERSESKFG | < -0.25
11 | RRHGTHCFRESFADSPRFAK | < -0.25
14 | QLLDST | < -0.25
16 | IQGDVTGI | < -0.25
18 | EFTQAAR | < -0.25
19 | HGFKARLSVGGGPAEWPIGS | < -0.25
22 | ESIKRSIDFS | < -0.25
24 | RRSPKCARLD | < -0.25
25 | WWMCYPVGVTKQSKNDALYP | < -0.25
3 | LKARAWSTRLDIRVWRLWTA | < -0.25
5 | NMGSTDCLLNKVSTLKRCPA | < -0.25
13 | MHSAPLVGSKRIYPHLRIVR | < -0.25
14 | IDSGHYLT | < -0.25
15 | TVEWLRQDVRR | < -0.25
18 | CCSIAILGAYDCIEDVELRR | < -0.25
24 | RRWTPKHEGDKASNGCL | < -0.25
1 | DRSKRVELTVTSVPPPQWNM | < -0.25
4 | WVSSVKDDPFLLEKTYNLGE | < -0.25
7 | SQRCRDPGPQARESYRQAEA | < -0.25
9 | VSVGRATKSHICNLRVH | < -0.25
12 | IVGFGRPMDRMVCSRMNGGN | < -0.25
18 | KNCVFSNCDFGEYH | < -0.25
20 | GGPAYWAWYISVSRSMLDSS | < -0.25
22 | PQSSTVFLGEPRGDRHGRQN | < -0.25

# (continued)

row,Substance,growth estimate
1,GVLMDGRWAPWRTPGY,< -0.25
2,VDRAILPAL,< -0.25
3,PSQAKKCVP,< -0.25
4,WTQL,< -0.25
5,ILSCTGRESVGPFGCWCGLA,< -0.25
6,TISPICRRASSSRCEQFLPL,< -0.25
7,PWLSRAVYPIGF,< -0.25
8,GVYSCAIRMKDESQGLALGV,< -0.25
9,ATTAWRLFISAGGVD,< -0.25
10,VHWRANRFVRVVRAAP,< -0.25
11,LMKLSGSGEDQCPTEVAVTT,< -0.25
12,PFVLVTQPPYRVSV,< -0.25
13,HHQLTHASGAVAYQNSL,< -0.25
14,SFTR,< -0.25
15,EGLL,< -0.25
16,LGVCRTGAGDPQCVRASTCA,< -0.25
17,MSLSIVLEPRG,< -0.25
18,LVLIPSTT,< -0.25
19,GGHFSVYIAITHPDRHSLPP,< -0.25
20,SLEVSSGVRLRLIASAKRML,< -0.25
21,GEFFTCRVRQVERPCGVLEG,< -0.25
22,EHYVQLNYIYRGKGLGRSAD,< -0.25
23,RTSSDAFRTL,< -0.25
24,ARFIHGPPAGNRSRN,< -0.25
25,DVRHTLRGSRSPWGLLRYSP,< -0.25

row,Substance,growth estimate
1,VTSSHSTYGMAASLRNAESQ,< -0.25
2,QRKGGQDTFGQWLRLALINV,< -0.25
3,PDVRWAGDMHIGAPVVRTVM,< -0.25
4,MKFH,< -0.25
5,GTCVDRSHVDRDPSTLSLRP,< -0.25
6,PLGTFTPFRGFAGQSRNRRR,< -0.25
7,PMVVDGLVARKTKTR,< -0.25
8,TPLKYIPWRKLYREVTATRA,< -0.25
9,RSGVGGRAVLRV,< -0.25
10,ATALWADS,< -0.25
11,AKVFQARVDGALSWFAMYWQ,< -0.25
12,QLEKRNLVCEL,-0.243
13,YGRVPSRAAHMFVHNLRPVY,< -0.25
14,MNPSSDGTSDCYYGYKGSRP,< -0.25
15,HSRNIISGVGTTLFVRRYYG,< -0.25
16,SWKPLQARPGRILRMHLYSF,< -0.25
17,VGIRSRTSG,< -0.25
18,RNHRLSGGV,< -0.25
19,VAIQLLS,< -0.25
20,AYLWSGGFCDARGVG,< -0.25
21,SAPG,< -0.25
22,PCYSTCILVMQ,< -0.25
23,ADSDRCRSESTRIPYGPPFR,< -0.25
24,FSSRRRLALKCP,< -0.25
25,SKYGLTTVFGTGRSNSHFRP,< -0.25

row,Substance,growth estimate
1,LDGSFARRGIDC,< -0.25
2,AKLAYRTNVKGYLSGIIAAK,< -0.25
3,RTVATAAR,< -0.25
4,LVNVTPRAL,< -0.25
5,VLNQMHCLGVFLAAGAHGST,< -0.25
6,PCFSTMNRNAINLSAACGLI,< -0.25
7,AGEWQDAGLQCPVGEKDKSR,< -0.25
8,LCRLIVEPPHISITTLVQRH,-0.25
9,HAVPPGLSL,< -0.25
10,WSTAIARCSG,< -0.25
11,PRGQFISLRSCSA,< -0.25
12,GVPDTEFGSSSAEEDRMIIG,< -0.25
13,EGGIKPLFAKGVVSSADCRC,< -0.25
14,ACIRRNGSGGVESGDTHDNP,< -0.25
15,DIC,< -0.25
16,VRKSGSTAL,< -0.25
17,QQVIVFHREQIRSLVSLGRH,< -0.25
18,DAFVQHI,< -0.25
19,PNGARRIVL,< -0.25
20,QLDGRLISPIPVGIINAS,< -0.25
21,MSSTLGVGLKTLYGNCRLHW,< -0.25
22,LSSAE,< -0.25
23,VEINKPERC,< -0.25
24,VVDSCSPSHDVRLNCYTLSG,< -0.25
25,SGNGVGGYTT,< -0.25

row,Substance,growth estimate
1,DAFVT,< -0.25
2,RTLIYPRLVANQRWSKFLRP,< -0.25
3,FRCRYTAYSTRRHRSARWNG,< -0.25
4,YRVFSVAVTYATESWYILHR,< -0.25
5,KFFEG,< -0.25
6,PSSFTRAQRTLIRWSKNNAR,< -0.25
7,FCQVQGSAANYQSA,< -0.25
8,VDRI,< -0.25
9,GPH,< -0.25
10,HSMGCRRGRTAPKVGIDSTF,< -0.25
11,HCEFNFSTSADPKRLMERRP,< -0.25
12,WQRVHEE,< -0.25
13,RSDS,< -0.25
14,LVGTQRCRFKLIRRGATTSA,-0.245
15,ILISAWGRSVQRPFHVRSHR,< -0.25
16,TVAVWWGRGVLNRYYSGRTQ,< -0.25
17,SIAVARMVCNFVADRSPPHN,< -0.25
18,DMPVRSRYCCTPELSDCSRE,< -0.25
19,HTQRPPHRV,< -0.25

# Source: the supplement of paper PMC5949888
